# According to the supplement of paper PMC5949888:
# Most values lie at the floor of the assay. Slopes are relative: functional sequences can read slightly below zero.
# Test system: Saccharomyces cerevisiae PS128 hsf1 delta, HSF1(1-493) fusion
# Experiment: growth estimate (transactivation domain function in HSF1 fusion, heat-shock survival) (a.u. (slope of normalised read count over time)); higher = stronger growth at 37°C, i.e. more transactivation activity
# Conditions: library: random library
row,Substance,growth estimate
1,GGGSEQNILRRRPEVSVGSA,< -0.25
2,SCSGEERRELSHSVSAGGYS,< -0.25
3,REPVMLLSRSYLDVPARLSS,< -0.25
4,SFEAGSAFKRGRHCVQTSAH,< -0.25
5,KSEFNRTCKACGEI,< -0.25
6,SPAQVPTDPLGLVVSSVSLP,< -0.25
7,RRPPAANPFQRGRQSSRVSR,< -0.25
8,FITLPLPAEHGG,< -0.25
9,YVVAGLTESNERNLSFRSPS,< -0.25
10,INDRHSKSSIEGFSALYWPP,-0.181
11,GFS,< -0.25
12,VKSGYLPSLNGLATV,< -0.25
13,LFIRLGAVGDVQLFHDGARG,< -0.25
14,KRKGRCRYRGVTKSRVFHVG,< -0.25
15,ARGPTDCGGTVRYRQLTVPG,< -0.25
16,WESGQSAPYENGSPLNVVTY,< -0.25
17,TGRANHMFTALNPGELKADS,< -0.25
18,TSSNSHKDVGRLSPAVELSV,< -0.25
19,IMPYTVVGRSYSSVGTGPPY,< -0.25
20,ASRWCGAIFAQRTFRD,< -0.25
21,NRRWKAY,< -0.25
22,VRCTPDNPAQSLRKYGPRAN,< -0.25
23,CGDQKGVIA,< -0.25
24,GPWNELGYYQLIRPRVLMGR,< -0.25
25,GNLE,< -0.25

row,Substance,growth estimate
1,EVAVYSTRLSFAEIREPPRA,< -0.25
2,GRVGITLSAKGHSGRAVGRT,< -0.25
3,PEAALHRV,< -0.25
4,VGRHSVSCADGIRPIKQPYA,< -0.25
5,LVGFCVDWR,< -0.25
6,IAPR,< -0.25
7,LRLAIVGGPGRSKWLYNYSP,< -0.25
8,LDLASGDGLEFSVLWFRAKP,< -0.25
9,TGISRAGIEICSAGQCAQVV,< -0.25
10,RFIKYFSNVYFDGSNPRQVL,< -0.25
11,RLGASFSEVA,< -0.25
12,SVVAGAVINDLCRSRPSFDP,< -0.25
13,GKASNTIYKLALQPASRSQA,< -0.25
14,SLSSDHVSAVFSRPADSIFA,< -0.25
15,FITFQSKVRCDVWFEIRGYW,< -0.25
16,HCLLSVQTCPMKKTRSGTLG,-0.229
17,VGFLASLRTPPSCDGHVGSG,< -0.25
18,EDQANSS,< -0.25
19,VSADNTKVCVHCVSSGVLSI,< -0.25
20,GKGWKSLFNLPLEA,< -0.25
21,IPARPRGRRMVGHISFCTPG,< -0.25
22,AIIRRSSVHDYVMLLLGPT,< -0.25
23,APHHRNKG,< -0.25
24,RWKLYETSLSSCVE,< -0.25
25,PNMTVTVVPMAGD,< -0.25

row,Substance,growth estimate
1,RTHLKLGLFEVTAPT,< -0.25
2,YCLFSVLGPGRELGDR,< -0.25
3,YQVSKKAALKL,< -0.25
4,LDTHRRRREVRLDFVRVLSQ,< -0.25
5,RFGGTAARSLYRDTLFGNSR,< -0.25
6,AIRGGHLRLMRCQDQLNHCR,< -0.25
7,CSRLQLGARR,< -0.25
8,MAR,< -0.25
9,RYLYRKWSY,< -0.25
10,VLGAIY,< -0.25
11,VHYLSGVGLFMA,< -0.25
12,DSRG,< -0.25
13,SWSDTRSYFRRCLRYRSIGR,< -0.25
14,DCVVCTAC,< -0.25
15,SRQIGEIIDSSRQAHTL,< -0.25
16,LTYASCMAAMEF,< -0.25
17,IRIVSLGGARV,< -0.25
18,SRVMATRSPFGGVFEGQTVL,< -0.25
19,LGVAEFYGSCE,< -0.25
20,FCPTGVGACVPCSEKECQHG,< -0.25
21,RQY,< -0.25
22,SFELEGV,< -0.25
23,LVLEYT,< -0.25
24,STFQEQPVGPTMGCRVKFLH,< -0.25
25,SNNILLGYGTLG,< -0.25

# Not a retest: an excerpt of the list.
row,Substance,growth estimate
20,FCPTGVGACVPCSEKECQHG,< -0.25
21,RQY,< -0.25

# Later entries.

row,Substance,growth estimate
1,WTRTG,< -0.25
2,LLSGLRSELKGATASDIRFS,< -0.25
3,HIIRGGACKD,< -0.25
4,VAYPM,< -0.25
5,EYSVRRPG,-0.145
6,QIVISHGPR,< -0.253
7,DEC,< -0.25
8,RCEWSRLLRA,< -0.25
9,SICVA,< -0.25
10,SSVRRTGGAAAVAARVESPR,< -0.25
11,GTSVHAKARGRLLG,< -0.25
12,LNACKNRRGRLLMGSFLTAV,< -0.25
13,QGYNL,< -0.25
14,VKDSGQCYANHGQLICRRDP,< -0.25
15,KLSTSVSGHLRAAHFTNPAL,< -0.25
16,IAWSLS,< -0.25
17,AAPHTMQAKYSDRYTTAHRS,-0.244
18,GPLGHLKEVVLQSPDRGSLE,< -0.25
19,GNRGELTHCGGGKHNQERST,< -0.25
20,RGERRASDVICRYAI,< -0.25
21,GVLIVRQAAILAGPKTPSDI,< -0.25
22,ARVGWDCYFR,< -0.25
23,WHRACVF,< -0.25

# Part of the list above, bar-delimited:
row | Substance | growth estimate
1 | WTRTG | < -0.25
3 | HIIRGGACKD | < -0.25
19 | GNRGELTHCGGGKHNQERST | < -0.25
21 | GVLIVRQAAILAGPKTPSDI | < -0.25
